Experimental data from publication PMC6945063 (2019).
No constants are given. Whether binding was seen depends on the method and setting. For part of these data: In cells and extracts the contact can be indirect. Some binding calls cover weakened binding; strength is not graded here. For part of these data: Tags and fused reporters may be left off the sequences shown.

Protein sequences, listed by entry. Tags and fused reporters are not part of them. Lines headed by an entry give the natural chain unless they say otherwise; changes in a name come on top. Chains listed by the source or under a name are the forms on record and can include a tag or linker. Residues count along the entry.
GFP‐LC3C Δ C‐terminal WT (Q9BXW4, residues 1-126): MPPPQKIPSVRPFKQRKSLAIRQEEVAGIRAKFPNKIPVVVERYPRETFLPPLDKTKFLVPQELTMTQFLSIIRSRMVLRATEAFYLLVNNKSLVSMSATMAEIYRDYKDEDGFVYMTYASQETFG
GFP‐LC3C Δ C‐terminal S93/96D (Q9BXW4, form named): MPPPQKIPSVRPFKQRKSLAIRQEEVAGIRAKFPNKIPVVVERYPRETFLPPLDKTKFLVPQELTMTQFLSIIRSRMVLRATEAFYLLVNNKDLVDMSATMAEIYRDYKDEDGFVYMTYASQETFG
UniProt Q9Y4G2: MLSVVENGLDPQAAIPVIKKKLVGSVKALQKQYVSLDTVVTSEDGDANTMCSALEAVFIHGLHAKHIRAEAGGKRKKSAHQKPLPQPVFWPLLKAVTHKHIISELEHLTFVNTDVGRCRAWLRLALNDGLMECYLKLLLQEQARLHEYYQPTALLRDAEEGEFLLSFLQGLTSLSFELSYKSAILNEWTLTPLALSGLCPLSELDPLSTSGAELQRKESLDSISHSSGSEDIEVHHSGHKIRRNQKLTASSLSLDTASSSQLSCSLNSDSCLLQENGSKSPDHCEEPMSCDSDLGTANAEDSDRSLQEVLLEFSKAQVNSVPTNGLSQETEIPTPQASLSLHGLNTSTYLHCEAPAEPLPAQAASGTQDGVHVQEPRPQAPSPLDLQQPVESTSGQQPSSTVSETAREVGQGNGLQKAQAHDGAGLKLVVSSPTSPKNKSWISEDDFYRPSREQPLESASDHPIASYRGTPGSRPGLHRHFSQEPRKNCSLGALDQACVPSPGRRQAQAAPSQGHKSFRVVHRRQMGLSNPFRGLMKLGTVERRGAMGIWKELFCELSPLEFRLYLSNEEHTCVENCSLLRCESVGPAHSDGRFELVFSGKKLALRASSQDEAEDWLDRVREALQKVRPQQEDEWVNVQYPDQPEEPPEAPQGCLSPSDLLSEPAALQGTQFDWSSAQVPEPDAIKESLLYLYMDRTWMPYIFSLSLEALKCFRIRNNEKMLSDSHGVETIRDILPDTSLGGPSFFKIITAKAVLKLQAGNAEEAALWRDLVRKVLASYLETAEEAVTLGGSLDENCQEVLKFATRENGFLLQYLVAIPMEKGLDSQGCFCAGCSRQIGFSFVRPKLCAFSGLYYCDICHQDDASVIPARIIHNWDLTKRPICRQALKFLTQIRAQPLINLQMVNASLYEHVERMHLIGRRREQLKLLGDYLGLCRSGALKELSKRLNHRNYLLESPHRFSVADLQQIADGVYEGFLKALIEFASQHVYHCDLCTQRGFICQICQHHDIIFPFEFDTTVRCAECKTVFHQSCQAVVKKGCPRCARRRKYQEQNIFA
UniProt Q96CV9: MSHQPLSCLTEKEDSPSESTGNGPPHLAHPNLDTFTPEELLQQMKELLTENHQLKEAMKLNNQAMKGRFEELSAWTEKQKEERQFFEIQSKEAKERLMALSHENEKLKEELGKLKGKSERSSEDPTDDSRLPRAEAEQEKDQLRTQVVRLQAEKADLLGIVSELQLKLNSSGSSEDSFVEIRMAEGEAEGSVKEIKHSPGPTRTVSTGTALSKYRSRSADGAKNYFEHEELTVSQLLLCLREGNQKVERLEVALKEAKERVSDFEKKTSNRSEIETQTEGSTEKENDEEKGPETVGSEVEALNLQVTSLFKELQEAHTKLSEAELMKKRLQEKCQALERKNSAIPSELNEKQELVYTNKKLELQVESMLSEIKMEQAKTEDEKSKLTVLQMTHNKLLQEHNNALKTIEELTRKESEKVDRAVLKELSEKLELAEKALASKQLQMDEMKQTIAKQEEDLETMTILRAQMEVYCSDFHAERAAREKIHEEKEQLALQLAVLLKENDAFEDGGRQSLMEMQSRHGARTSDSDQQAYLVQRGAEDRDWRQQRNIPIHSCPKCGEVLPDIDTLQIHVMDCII

T1: GST‐ATG4A (UniProt Q8WYN0)
T1 sequence: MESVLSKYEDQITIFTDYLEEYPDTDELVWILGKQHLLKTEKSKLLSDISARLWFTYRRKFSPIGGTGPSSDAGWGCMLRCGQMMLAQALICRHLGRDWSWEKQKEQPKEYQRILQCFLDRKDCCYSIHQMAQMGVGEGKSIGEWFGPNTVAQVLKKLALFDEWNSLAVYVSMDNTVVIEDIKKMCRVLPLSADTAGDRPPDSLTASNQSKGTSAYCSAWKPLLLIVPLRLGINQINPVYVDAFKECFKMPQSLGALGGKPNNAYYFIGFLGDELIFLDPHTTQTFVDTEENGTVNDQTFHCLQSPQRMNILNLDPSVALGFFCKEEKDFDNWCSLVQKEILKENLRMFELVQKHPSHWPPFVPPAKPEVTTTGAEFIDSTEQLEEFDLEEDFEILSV


How the values were obtained:
[1] = target: GFP‐GABARAP‐L2 Δ C‐terminal WT (human) (UniProt P60520); assay: co-IP; HEK293T transfected with GFP, GFP‐LC3C Δ C‐terminal or GFP‐GABARAP‐L2 Δ C‐terminal (WT or phospho-mimetic); GFP IP, Western blot for endogenous p62, OPTN, PLEKHM1
[2] = target: GFP‐GABARAP‐L2 Δ C‐terminal S87/88D (human) (UniProt P60520); assay: as above
GST‐ATG4A = target: T1, GST‐ATG4A; assay: BLI; GST‐ATG4A (1 μg/ml) immobilised on anti‐GST biosensors; His‐GABARAP‐L2 WT or S87/88D at 20, 10, 5 and 0.625 μM; 300 mM NaCl, 0.004% Tween‐20, 0.05% BSA in PBS; Octet RED96; 1:1 global fitting, steady-state Kd; both purified
[3] = target: GFP‐LC3C Δ C‐terminal S93/96D (human) (UniProt Q9BXW4); assay: co-IP; HEK293T transfected with GFP, GFP‐LC3C Δ C‐terminal or GFP‐GABARAP‐L2 Δ C‐terminal (WT or phospho-mimetic); GFP IP, Western blot for endogenous p62, OPTN, PLEKHM1
[4] = target: GFP‐LC3C Δ C‐terminal WT (human) (UniProt Q9BXW4); assay: as above
[5] = target: GFP‐GABARAP‐L2 S87/88D (human) (UniProt P60520); assay: co-IP; HEK293T co-transfected with Flag‐ATG4A, B, C or D and GFP‐LC3C or GFP‐GABARAP‐L2 (WT or mutants); GFP‐Trap_A beads, 2 h at 4°C, Western blot
[6] = target: GFP‐GABARAP‐L2 WT (human) (UniProt P60520); assay: as above
GST‐GABARAP‐L2 (human) = GST‐GABARAP‐L2 (human) (UniProt P60520); assay: pull-down; GST‐LC3C or GST‐GABARAP‐L2 on glutathione‐Sepharose beads mixed with cleared extracts of HeLa or HEK293T cells (endogenous TBK1, or HEK293T transfected with TBK1 constructs), 2 h at 4°C, washed four times in lysis buffer, Western blot; only the target purified

Molecule | binding [1] | binding [2] | binding [5] | binding [6] | binding (GST‐GABARAP‐L2 (human)) | other results
endogenous PLEKHM1 (from UniProt Q9Y4G2 1-1056) | binds | binds | – | – | – | –
His‐GABARAP‐L2 S87/88D (from UniProt P60520 1-117) | – | – | – | – | – | binding (GST‐ATG4A): binds
endogenous p62 (from UniProt Q13501 1-440) | binds | binds | – | – | – | binding [3]: binds; binding [4]: binds
endogenous optineurin (OPTN) (from UniProt Q96CV9 1-577) | binds | binds | – | – | – | –
Flag‐ATG4D (from UniProt Q86TL0 1-474) (enzyme) | – | – | binds | binds | – | –
GST‐ATG4A (enzyme) MESVLSKYEDQITIFTDYLEEYPDTDELVWILGKQHLLKTEKSKLLSDISARLWFTYRRKFSPIGGTGPSSDAGWGCMLRCGQMMLAQALICRHLGRDWSWEKQKEQPKEYQRILQCFLDRKDCCYSIHQMAQMGVGEGKSIGEWFGPNTVAQVLKKLALFDEWNSLAVYVSMDNTVVIEDIKKMCRVLPLSADTAGDRPPDSLTASNQSKGTSAYCSAWKPLLLIVPLRLGINQINPVYVDAFKECFKMPQSLGALGGKPNNAYYFIGFLGDELIFLDPHTTQTFVDTEENGTVNDQTFHCLQSPQRMNILNLDPSVALGFFCKEEKDFDNWCSLVQKEILKENLRMFELVQKHPSHWPPFVPPAKPEVTTTGAEFIDSTEQLEEFDLEEDFEILSV | – | – | binds | binds | – | –
Flag‐ATG4C (enzyme, UniProt Q96DT6 1-458) MEATGTDEVDKLKTKFISAWNNMKYSWVLKTKTYFSRNSPVLLLGKCYHFKYEDEDKTLPAESGCTIEDHVIAGNVEEFRKDFISRIWLTYREEFPQIEGSALTTDCGWGCTLRTGQMLLAQGLILHFLGRAWTWPDALNIENSDSESWTSHTVKKFTASFEASLSGEREFKTPTISLKETIGKYSDDHEMRNEVYHRKIISWFGDSPLALFGLHQLIEYGKKSGKKAGDWYGPAVVAHILRKAVEEARHPDLQGITIYVAQDCTVYNSDVIDKQSASMTSDNADDKAVIILVPVRLGGERTNTDYLEFVKGILSLEYCVGIIGGKPKQSYYFAGFQDDSLIYMDPHYCQSFVDVSIKDFPLETFHCPSPKKMSFRKMDPSCTIGFYCRNVQDFKRASEEITKMLKFSSKEKYPLFTFVNGHSRDYDFTSTTTNEEDLFSEDEKKQLKRFSTEEFVLL | – | – | binds | binds | – | –
Endogenous TBK1 (enzyme, UniProt Q9UHD2 1-729) MQSTSNHLWLLSDILGQGATANVFRGRHKKTGDLFAIKVFNNISFLRPVDVQMREFEVLKKLNHKNIVKLFAIEEETTTRHKVLIMEFCPCGSLYTVLEEPSNAYGLPESEFLIVLRDVVGGMNHLRENGIVHRDIKPGNIMRVIGEDGQSVYKLTDFGAARELEDDEQFVSLYGTEEYLHPDMYERAVLRKDHQKKYGATVDLWSIGVTFYHAATGSLPFRPFEGPRRNKEVMYKIITGKPSGAISGVQKAENGPIDWSGDMPVSCSLSRGLQVLLTPVLANILEADQEKCWGFDQFFAETSDILHRMVIHVFSLQQMTAHKIYIHSYNTATIFHELVYKQTKIISSNQELIYEGRRLVLEPGRLAQHFPKTTEENPIFVVSREPLNTIGLIYEKISLPKVHPRYDLDGDASMAKAITGVVCYACRIASTLLLYQELMRKGIRWLIELIKDDYNETVHKKTEVVITLDFCIRNIEKTVKVYEKLMKINLEAAELGEISDIHTKLLRLSSSQGTIETSLQDIDSRLSPGGSLADAWAHQEGTHPKDRNVEKLQVLLNCMTEIYYQFKKDKAERRLAYNEEQIHKFDKQKLYYHATKAMTHFTDECVKKYEAFLNKSEEWIRKMLHLRKQLLSLTNQCFDIEEEVSKYQEYTNELQETLPQKMFTASSGIKHTMTPIYPSSNTLVEMTLGMKKLKEEMEGVVKELAENNHILERFGSLTMDGGLRNVDCL | – | – | – | – | binds | –
full‐length TBK1 (enzyme, UniProt Q9UHD2 1-729) MQSTSNHLWLLSDILGQGATANVFRGRHKKTGDLFAIKVFNNISFLRPVDVQMREFEVLKKLNHKNIVKLFAIEEETTTRHKVLIMEFCPCGSLYTVLEEPSNAYGLPESEFLIVLRDVVGGMNHLRENGIVHRDIKPGNIMRVIGEDGQSVYKLTDFGAARELEDDEQFVSLYGTEEYLHPDMYERAVLRKDHQKKYGATVDLWSIGVTFYHAATGSLPFRPFEGPRRNKEVMYKIITGKPSGAISGVQKAENGPIDWSGDMPVSCSLSRGLQVLLTPVLANILEADQEKCWGFDQFFAETSDILHRMVIHVFSLQQMTAHKIYIHSYNTATIFHELVYKQTKIISSNQELIYEGRRLVLEPGRLAQHFPKTTEENPIFVVSREPLNTIGLIYEKISLPKVHPRYDLDGDASMAKAITGVVCYACRIASTLLLYQELMRKGIRWLIELIKDDYNETVHKKTEVVITLDFCIRNIEKTVKVYEKLMKINLEAAELGEISDIHTKLLRLSSSQGTIETSLQDIDSRLSPGGSLADAWAHQEGTHPKDRNVEKLQVLLNCMTEIYYQFKKDKAERRLAYNEEQIHKFDKQKLYYHATKAMTHFTDECVKKYEAFLNKSEEWIRKMLHLRKQLLSLTNQCFDIEEEVSKYQEYTNELQETLPQKMFTASSGIKHTMTPIYPSSNTLVEMTLGMKKLKEEMEGVVKELAENNHILERFGSLTMDGGLRNVDCL | – | – | – | – | binds | –
TBK1 K38A (enzyme, UniProt Q9UHD2 1-729) MQSTSNHLWLLSDILGQGATANVFRGRHKKTGDLFAIAVFNNISFLRPVDVQMREFEVLKKLNHKNIVKLFAIEEETTTRHKVLIMEFCPCGSLYTVLEEPSNAYGLPESEFLIVLRDVVGGMNHLRENGIVHRDIKPGNIMRVIGEDGQSVYKLTDFGAARELEDDEQFVSLYGTEEYLHPDMYERAVLRKDHQKKYGATVDLWSIGVTFYHAATGSLPFRPFEGPRRNKEVMYKIITGKPSGAISGVQKAENGPIDWSGDMPVSCSLSRGLQVLLTPVLANILEADQEKCWGFDQFFAETSDILHRMVIHVFSLQQMTAHKIYIHSYNTATIFHELVYKQTKIISSNQELIYEGRRLVLEPGRLAQHFPKTTEENPIFVVSREPLNTIGLIYEKISLPKVHPRYDLDGDASMAKAITGVVCYACRIASTLLLYQELMRKGIRWLIELIKDDYNETVHKKTEVVITLDFCIRNIEKTVKVYEKLMKINLEAAELGEISDIHTKLLRLSSSQGTIETSLQDIDSRLSPGGSLADAWAHQEGTHPKDRNVEKLQVLLNCMTEIYYQFKKDKAERRLAYNEEQIHKFDKQKLYYHATKAMTHFTDECVKKYEAFLNKSEEWIRKMLHLRKQLLSLTNQCFDIEEEVSKYQEYTNELQETLPQKMFTASSGIKHTMTPIYPSSNTLVEMTLGMKKLKEEMEGVVKELAENNHILERFGSLTMDGGLRNVDCL | – | – | – | – | binds | –
